{"source": "patent US12371675B2", "about": "“Process and microorganism for synthesis of adipic acid from carboxylic acids” (THE GOVERNING COUNCIL OF THE UNIVERSITY OF TORONTO, priority 2015, dated 2025)", "test": "Whole-cell anaerobic biotransformation by E. coli expressing EREDs", "assay_type": "cell-based", "details": "20 mM 2-hexenedioic acid", "note": "Some results were stated once for a whole list of compounds, not compound by compound.", "data": [{"molecule": "EREDBC: 2-enoate reductase (ERED) from Bacillus coagulans 36D1 (protein) MKYKKLFETVKIRNVELKNRYAMAPMGPLGLADAEGGFNQRGIEYYTARARGGTALIITGVTFVDNEVEEHGMPNVPCPTHNPVHFVRTSKEMTERIHAYDSKIFLQMSAGFGRVTIPTNLGEYPPVAPSPIPHRWLDKTCRELTVEEIHSIVRKFGDGAFNAKRAGFDGVQIHAVHEGYLLDQFAIAFFNKRTDAYGGPLENRLRFAREIVEEIKQRCGEDFPVTLRFSPKSFIKDWREGALPGEEFEEKGRDLDEGIEAAKLLVSYGYDALDVDVGSYDSWWWSHPPMYQKKGLYIPYARLVKEAVDVPVLCAGRMDNPDLALAALEDGACDIISLGRPLLADPDYVNKLRIGQVADIRPCLSCHEGCMGRIQEYSSLGCAVNPAACREKEAALTPALKKKRVLIAGGGVAGCEAARVLALRGHEPVIFEKSNRLGGNLIPGGAPDFKEDDLALVAWYEHTLERLGVEIHLNTALTKEEILAANVDAVLIATGSNPKILPLDGKNKVFTAEDVLLDKVDAGQHVVIVGGGLVGCELALNLAEKGKDVSLVEMQDKLLAVNGPLCHANSDMLERLVPFKGVQVYTSSKIVDTTEKTAVVDVDGELREIEADSIVLAVGYSAEKSLYEDLKFEVADLHVVGDARKVANIMYAIWDAYEVAANL", "values": [{"measurement": "time to complete conversion of 2-hexenedioic acid to adipic acid", "result": "≤ 3", "unit": "h"}]}, {"molecule": "EREDCA: 2-enoate reductase (ERED) from Clostridium acetobutylicum DSM 1731 (protein) MNKYKKLFEPIKIGKCEIKNRFALAPMGPLGLADSEGGFNQRGIDYYTERAKGGTGLIITGVTFVDNEVEEHGMPNCPCPTHNPVQFVRTGREMTERIHAYNSKVFLQMSGGFGRVTIPTNLGEFPPVAPSPIQHRWLDKTCRELTVDEIKSIVKKFGEGAFNAKRAGFDGVQIHAVHEGYLIDQFAISLFNHRTDEYGGSLENRLRFAREIVEEIKNRCGEDFPVTLRYSPKSFIKDLRDGALPGEEFVEKGRDLDEGVEAAKLLVSYGYDALDTDVGSYDSWWWSHPPMYQEKGLYRKYAKLMKDTVDVPVICAGRMDDPDMALEAVENGTCDVISLGRPLLADPDYVNKLRSNKCKSIRPCISCQEGCMGRVQHYSMLNCAVNPQACKERANSLTPIIKSKKVLIVGGGVAGCEAARVLALRGHEPVLYEKSNRLGGNLIPGGAPSFKEDDIALADWYTNTLKELNVEVNLNSEVTKEQILNSKFDTVIVATGSTPKVFPLGDDEKVFTAAEVLLGQKDPGETTVVVGGGLVGCELALDLAKKGKKVTIVEALNKILALNGPLCSANSEMLQKLIPFNGIDVKANSKVKGYKNGLLKMETENGIEELPCDSVILSVGYKEENSLYKELEFEIPEIYLLGDARKVSNIMYGIWDAFEVANHI", "values": [{"measurement": "time to complete conversion of 2-hexenedioic acid to adipic acid", "result": "≤ 3", "unit": "h"}]}, {"molecule": "EREDCK: 2-enoate reductase (ERED) from Clostridium kluyveri DSM 555 (protein) MKNKSLFEPIKIGNMEVKNKIAMAPMGAFGLVDNECCFNQRAVDYYVERAKGGTGLIITSVVKVENELDKVLTGVLPITSINPAKFIMTSSEMTERVHAYGSKIFLQLSMGFGRSGAPGGLLTSQPVSASAVPNYWDPTVTCRELTTSEVEWIVEKFAEGAKIAHKAGFDGVEIHAVHEGYLLDQFTLSIFNRRTDKYGGDLRGRLQLPIEIVEAIKTEVGSNFPVGLRYSVKSCIKDWGQGGLAEEDYVEKGRDLEEGLEAAKILEAAGYDAFNADLGTYDAWYWAHPPLYQKDGLYLPYTKELKKVVKIPVMVAGKMGMPDVAEGALEDEAADMVTLGRPLLCDAYWPKKVFTGQIDRIRPCIGCHTGCMGRGFEGRPLSCTVNPAAGRERYYEVKPAAAPKKVMIVGGGVAGMEAARITAMRGHKVSMYEGTKELGGQVIPASVPDFKIDDRRLLDWYRNEMKELKVKLVLDTNVTEEVVEKEKPDVVIIATGAKEIKLNLPGIEKDKVATVIEVLKGSKQVGENVLMVGGGLAGCETALYLAKQGKKVTIIEARDTILNAGKPVPHMNKIMLIDLLKNSGVNIITETSLLEVTDRGAILIDNKFKKQNIDADTVVIAVGFKADRELYNKLRDKVADLYLVGDANESANIMNAIWSANEIALNC", "values": [{"measurement": "time to complete conversion of 2-hexenedioic acid to adipic acid", "result": "≤ 3", "unit": "h"}]}]}
